Patent US20070166710A1, “Methods for inhibiting adipogenesis and for treating type 2 diabetes” (priority 2003, published 2007)
No constants are given. Whether binding was seen depends on the method and setting. In cells and extracts the contact can be indirect. Some entries that bind do so weakly or less than the wild type.

Amino acid sequences for entries named in this document (tags omitted).
UniProt P31749: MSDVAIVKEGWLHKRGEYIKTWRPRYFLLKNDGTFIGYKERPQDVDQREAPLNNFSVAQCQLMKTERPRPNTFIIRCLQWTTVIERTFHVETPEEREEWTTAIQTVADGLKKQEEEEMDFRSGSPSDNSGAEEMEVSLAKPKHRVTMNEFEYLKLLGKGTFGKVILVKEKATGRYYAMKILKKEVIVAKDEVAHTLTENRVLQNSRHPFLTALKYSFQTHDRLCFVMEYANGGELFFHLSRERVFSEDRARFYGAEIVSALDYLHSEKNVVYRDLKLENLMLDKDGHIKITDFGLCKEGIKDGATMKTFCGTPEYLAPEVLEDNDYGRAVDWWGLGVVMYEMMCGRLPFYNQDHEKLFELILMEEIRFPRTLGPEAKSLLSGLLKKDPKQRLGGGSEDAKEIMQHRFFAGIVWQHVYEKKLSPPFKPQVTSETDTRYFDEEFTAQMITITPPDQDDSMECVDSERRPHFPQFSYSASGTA

Molecular target: T1, Foxa-2 (wildtype, rat coding region in pcDNA3) (rat) (UniProt P32182)
T1 sequence (looked up): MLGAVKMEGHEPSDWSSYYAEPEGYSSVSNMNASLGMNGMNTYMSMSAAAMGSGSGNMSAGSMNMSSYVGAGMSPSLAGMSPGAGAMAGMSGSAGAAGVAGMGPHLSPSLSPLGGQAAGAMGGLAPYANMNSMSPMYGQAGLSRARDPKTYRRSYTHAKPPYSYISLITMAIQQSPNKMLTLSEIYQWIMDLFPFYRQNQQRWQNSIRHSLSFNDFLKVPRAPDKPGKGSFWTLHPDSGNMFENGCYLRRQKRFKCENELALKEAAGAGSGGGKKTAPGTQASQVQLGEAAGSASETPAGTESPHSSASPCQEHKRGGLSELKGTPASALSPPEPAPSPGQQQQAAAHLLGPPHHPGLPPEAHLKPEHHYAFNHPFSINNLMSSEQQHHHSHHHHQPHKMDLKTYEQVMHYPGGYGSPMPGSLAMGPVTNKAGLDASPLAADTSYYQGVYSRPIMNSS
Assay: co-immunoprecipitation from transfected HEK/293 cells (anti-HA IP, Western blot for Foxa-2; the reverse anti-Foxa-2 IP also coprecipitated Akt)

For “HA-Akt (human Akt1 fused to an N-terminal HA-tag, expressed from pCMV-HA-Akt) (from UniProt P31749 1-480) (enzyme)”, the binding was “binds”.
